# According to PMC8907715:
# The chains behind the UniProt entries cited, without tags or fusion partners. Residues count along the entry.
# UniProt P05046, 33-285: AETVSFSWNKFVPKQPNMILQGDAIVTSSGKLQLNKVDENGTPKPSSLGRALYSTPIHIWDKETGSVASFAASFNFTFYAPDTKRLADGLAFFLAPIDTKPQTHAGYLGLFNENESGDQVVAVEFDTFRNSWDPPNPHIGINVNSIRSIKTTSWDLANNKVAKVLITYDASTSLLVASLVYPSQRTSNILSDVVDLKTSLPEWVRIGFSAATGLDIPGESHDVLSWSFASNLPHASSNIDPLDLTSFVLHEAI
# The exact form of at least one protein or probe is not confirmed. Weaker means in comparison with the reference protein, sequence or condition of that experiment. At least one verdict rests on a figure or table, not on a statement of the authors. For some assays here: Tags and fusion partners may be left off the protein sequences shown.
# Experiments:
# [1] = biological target: T1, Bowman-Birk inhibitor (BBI) (UniProt P01055); test: GO fluorescence assay; details: specificity test; commercial protein; label: 5'-FAM; single-stranded DNA
# T1 sequence (looked up, limits assumed): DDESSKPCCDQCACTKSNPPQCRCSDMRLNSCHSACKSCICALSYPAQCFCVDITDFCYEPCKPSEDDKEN
# [2] = biological target: Soybean agglutinin (SBA) (soybean) (UniProt P05046); test: GO fluorescence assay; details: specificity test; commercial protein; label: 5'-FAM; single-stranded DNA
sequence,measurement,setting,value
CTTCGTATCCTGTGCTGCAGTTGTTTTTAAGTGCTGGGAG [Akti-5],binding result,[1],binds more weakly
same,binding result,[2],binds more weakly
